Measured data: PubChem BioAssay AID1259254 (NCATS, 2017)
Here is an unselected part of about 59,000 reagents. Of all reagents, about 1,550 (2.6%) are marked active. 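G2 share is only a proxy for re-replication; each gene was hit by three separate siRNAs, and active genes were retested.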 Raw values are not corrected between plates. The numbers tell different reagents against one gene apart. Not given: the amount of reagent.

Purpose: 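Finding genes that stop cells copying their DNA twice in one cycle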 (primary screen)
Cell system: human HCT116 colorectal cancer cells
Knock-down reagent: single siRNA against human genes
Timing: 3 days
Read-out: 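Nuclei stained with Hoechst and imaged; cell-cycle phase assigned by DNA content; G2 share scaled per plate, non-targeting siRNA 0%, GMNN siRNA 100%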
Reading the numbers: G2 robust z-score and G2 cells, % of GMNN control: higher = more G2 cells, more excess DNA replication; raw share of cells in G2: higher = larger share of cells with G2 DNA content
Call rule: 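Active siRNAs have a G2 robust z of 5 or more median absolute deviations over the median, which in these data means about 38% or higher of GMNN control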

| target | reagent | G2 robust z-score | G2 cells, % of GMNN control | raw share of cells in G2 (%) | activity call |
| --- | --- | --- | --- | --- | --- |
| COA6 (cytochrome c oxidase assembly factor 6) | 1 | 1.94 | 16.6 | 9.46 | inactive |
| COA6 (cytochrome c oxidase assembly factor 6) | 2 | -0.296 | 0.885 | 3.79 | inactive |
| COA6 (cytochrome c oxidase assembly factor 6) | 3 | -1.42 | -7.03 | 1.62 | inactive |
| SPINK9 (serine peptidase inhibitor Kazal type 9) | 1 | 0.468 | 6.26 | 7.4 | inactive |
| SPINK9 (serine peptidase inhibitor Kazal type 9) | 2 | -0.276 | 1.03 | 4.66 | inactive |
| SPINK9 (serine peptidase inhibitor Kazal type 9) | 3 | -0.636 | -1.51 | 5.25 | inactive |
| INPP4A (inositol polyphosphate-4-phosphatase type I A) | 1 | 2.06 | 17.4 | 11.4 | inactive |
| INPP4A (inositol polyphosphate-4-phosphatase type I A) | 2 | 0.0282 | 3.17 | 5.36 | inactive |
| INPP4A (inositol polyphosphate-4-phosphatase type I A) | 3 | -0.412 | 0.0655 | 5.71 | inactive |
| PTS (6-pyruvoyltetrahydropterin synthase) | 1 | 8.16 | 60.4 | 25.7 | active |
| PTS (6-pyruvoyltetrahydropterin synthase) | 2 | -1.06 | -4.48 | 2.97 | inactive |
| PTS (6-pyruvoyltetrahydropterin synthase) | 3 | -0.00492 | 2.93 | 5.12 | inactive |
| ARHGAP21 (Rho GTPase activating protein 21) | 1 | -0.952 | -3.73 | 4.1 | inactive |
| ARHGAP21 (Rho GTPase activating protein 21) | 2 | -0.969 | -3.85 | 2.98 | inactive |
| ARHGAP21 (Rho GTPase activating protein 21) | 3 | -0.268 | 1.08 | 4.62 | inactive |
| ACAP2 (ArfGAP with coiled-coil, ankyrin repeat and PH domains 2) | 1 | -0.5 | -0.548 | 6.15 | inactive |
| ACAP2 (ArfGAP with coiled-coil, ankyrin repeat and PH domains 2) | 2 | -0.32 | 0.715 | 4.39 | inactive |
| ACAP2 (ArfGAP with coiled-coil, ankyrin repeat and PH domains 2) | 3 | -0.445 | -0.162 | 3.81 | inactive |
| TLE3 (TLE family member 3, transcriptional corepressor) | 1 | -0.946 | -3.69 | 2 | inactive |
| TLE3 (TLE family member 3, transcriptional corepressor) | 2 | -0.245 | 1.25 | 5.43 | inactive |
| TLE3 (TLE family member 3, transcriptional corepressor) | 3 | 1.27 | 11.9 | 7.43 | inactive |
| CRNDE (colorectal neoplasia differentially expressed) | 1 | 2.05 | 17.4 | 9.73 | inactive |
| CRNDE (colorectal neoplasia differentially expressed) | 2 | 0.889 | 9.22 | 7.42 | inactive |
| CRNDE (colorectal neoplasia differentially expressed) | 3 | 0.497 | 6.47 | 7.41 | inactive |
| CRNDE (colorectal neoplasia differentially expressed) | 4 | 0.135 | 3.92 | 5.13 | inactive |
| CRNDE (colorectal neoplasia differentially expressed) | 5 | -0.818 | -2.79 | 2.27 | inactive |
| CRNDE (colorectal neoplasia differentially expressed) | 6 | 0.643 | 7.49 | 5.33 | inactive |
| ENKD1 (enkurin domain containing 1) | 1 | 1.73 | 15.1 | 9.14 | inactive |
| ENKD1 (enkurin domain containing 1) | 2 | -0.988 | -3.98 | 2.28 | inactive |
| ENKD1 (enkurin domain containing 1) | 3 | -0.202 | 1.55 | 2.87 | inactive |
| FAU (FAU ubiquitin like and ribosomal protein S30 fusion) | 1 | 3.92 | 30.5 | 15.5 | inactive |
| FAU (FAU ubiquitin like and ribosomal protein S30 fusion) | 2 | 6.94 | 51.8 | 29.6 | active |
| FAU (FAU ubiquitin like and ribosomal protein S30 fusion) | 3 | 0.676 | 7.73 | 6.92 | inactive |
| TMEM144 (transmembrane protein 144) | 1 | -0.767 | -2.43 | 3.59 | inactive |
| TMEM144 (transmembrane protein 144) | 2 | 3.55 | 28 | 15.7 | inactive |
| TMEM144 (transmembrane protein 144) | 3 | 5.8 | 43.7 | 17.1 | active |
| SEC31A (SEC31 homolog A, COPII component) | 1 | -1.5 | -7.56 | 2.02 | inactive |
| SEC31A (SEC31 homolog A, COPII component) | 2 | -0.676 | -1.79 | 3.4 | inactive |
| SEC31A (SEC31 homolog A, COPII component) | 3 | -0.314 | 0.757 | 3.46 | inactive |
| CPA6 (carboxypeptidase A6) | 1 | 4.17 | 32.3 | 16.8 | inactive |
| CPA6 (carboxypeptidase A6) | 2 | 0.288 | 4.99 | 6.67 | inactive |
| CPA6 (carboxypeptidase A6) | 3 | 0.433 | 6.02 | 6.15 | inactive |
| CRYZ (crystallin zeta) | 1 | 2.88 | 23.2 | 12.1 | inactive |
| CRYZ (crystallin zeta) | 2 | -0.84 | -2.94 | 3.92 | inactive |
| CRYZ (crystallin zeta) | 3 | -0.446 | -0.167 | 4.9 | inactive |
| TECPR1 (tectonin beta-propeller repeat containing 1) | 1 | -0.877 | -3.21 | 3.21 | inactive |
| TECPR1 (tectonin beta-propeller repeat containing 1) | 2 | -0.0721 | 2.46 | 5 | inactive |
| TECPR1 (tectonin beta-propeller repeat containing 1) | 3 | -0.716 | -2.07 | 2.58 | inactive |
| HHEX (hematopoietically expressed homeobox) | 1 | 3.44 | 27.2 | 14.9 | inactive |
| HHEX (hematopoietically expressed homeobox) | 2 | -0.898 | -3.35 | 4.41 | inactive |
| HHEX (hematopoietically expressed homeobox) | 3 | -0.0144 | 2.87 | 5.25 | inactive |

Records listed so far whose target name starts with P or p:
| target | reagent | G2 robust z-score | G2 cells, % of GMNN control | raw share of cells in G2 (%) | activity call |
| --- | --- | --- | --- | --- | --- |
| PTS (6-pyruvoyltetrahydropterin synthase) | 1 | 8.16 | 60.4 | 25.7 | active |
| PTS (6-pyruvoyltetrahydropterin synthase) | 2 | -1.06 | -4.48 | 2.97 | inactive |
| PTS (6-pyruvoyltetrahydropterin synthase) | 3 | -0.00492 | 2.93 | 5.12 | inactive |

The list goes on.
| target | reagent | G2 robust z-score | G2 cells, % of GMNN control | raw share of cells in G2 (%) | activity call |
| --- | --- | --- | --- | --- | --- |
| S100A9 (S100 calcium binding protein A9) | 1 | -0.885 | -3.26 | 2.17 | inactive |
| S100A9 (S100 calcium binding protein A9) | 2 | -1.29 | -6.08 | 2 | inactive |
| S100A9 (S100 calcium binding protein A9) | 3 | 0.152 | 4.04 | 4.57 | inactive |
| EIF3K (eukaryotic translation initiation factor 3 subunit K) | 1 | 1.8 | 15.6 | 9.82 | inactive |
| EIF3K (eukaryotic translation initiation factor 3 subunit K) | 2 | -0.347 | 0.523 | 4.75 | inactive |
| EIF3K (eukaryotic translation initiation factor 3 subunit K) | 3 | -1.13 | -4.98 | 1.68 | inactive |
| APOBEC1 (apolipoprotein B mRNA editing enzyme catalytic subunit 1) | 1 | 0.138 | 3.94 | 5.46 | inactive |
| APOBEC1 (apolipoprotein B mRNA editing enzyme catalytic subunit 1) | 2 | -0.851 | -3.02 | 4 | inactive |
| APOBEC1 (apolipoprotein B mRNA editing enzyme catalytic subunit 1) | 3 | 0.177 | 4.21 | 6.15 | inactive |
| INHBC (inhibin subunit beta C) | 1 | 3.64 | 28.5 | 14.7 | inactive |
| INHBC (inhibin subunit beta C) | 2 | -0.085 | 2.37 | 5.9 | inactive |
| INHBC (inhibin subunit beta C) | 3 | -0.572 | -1.05 | 5.28 | inactive |
| ZBED3 (zinc finger BED-type containing 3) | 1 | -0.532 | -0.775 | 2.17 | inactive |
| ZBED3 (zinc finger BED-type containing 3) | 2 | -1.08 | -4.63 | 2.57 | inactive |
| ZBED3 (zinc finger BED-type containing 3) | 3 | 1.4 | 12.8 | 7.26 | inactive |
| LINC00442 (long independently transcribed non-coding RNA 442) | 1 | 0.581 | 7.06 | 6.41 | inactive |
| LINC00442 (long independently transcribed non-coding RNA 442) | 2 | 0.172 | 4.18 | 5.09 | inactive |
| LINC00442 (long independently transcribed non-coding RNA 442) | 3 | 4.84 | 37 | 19.1 | inactive |
| NWD1 (NACHT and WD repeat domain containing 1) | 1 | 1.63 | 14.5 | 8.91 | inactive |
| NWD1 (NACHT and WD repeat domain containing 1) | 2 | 1.79 | 15.6 | 9.08 | inactive |
| NWD1 (NACHT and WD repeat domain containing 1) | 3 | -0.761 | -2.38 | 2.54 | inactive |
| ZNF676 (zinc finger protein 676) | 1 | -0.0506 | 2.61 | 3.99 | inactive |
| ZNF676 (zinc finger protein 676) | 2 | 0.068 | 3.45 | 4.36 | inactive |
| ZNF676 (zinc finger protein 676) | 3 | -1.01 | -4.14 | 2.07 | inactive |
| LPA (lipoprotein(a)) | 1 | 2.33 | 19.4 | 12.3 | inactive |
| LPA (lipoprotein(a)) | 2 | 0.583 | 7.07 | 7.41 | inactive |
| LPA (lipoprotein(a)) | 3 | -0.774 | -2.48 | 2.99 | inactive |
| RANGAP1 (Ran GTPase activating protein 1) | 1 | 1.28 | 12 | 9.1 | inactive |
| RANGAP1 (Ran GTPase activating protein 1) | 2 | -0.35 | 0.508 | 4.87 | inactive |
| RANGAP1 (Ran GTPase activating protein 1) | 3 | 3.17 | 25.3 | 12.6 | inactive |
| CTSZ (cathepsin Z) | 1 | 0.0245 | 3.14 | 6.65 | inactive |
| CTSZ (cathepsin Z) | 2 | 0.547 | 6.82 | 7.32 | inactive |
| CTSZ (cathepsin Z) | 3 | 0.0782 | 3.52 | 5.22 | inactive |
| TREH (trehalase) | 1 | -1.05 | -4.42 | 2.68 | inactive |
| TREH (trehalase) | 2 | 6.97 | 52 | 27.2 | active |
| TREH (trehalase) | 3 | -0.573 | -1.07 | 3.5 | inactive |
